Laboratory results as given in the supplement of paper PMC5355238.
Where a name gives a salt, the structure may show the parent alone. The list shows a part of the results. Most values lie at the level of the controls, where differences are scatter.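 Reh, a human leukemia cell line, is read out by flow cytometry as the median γH2AX antibody signal in S-phase cells; the score counts standard deviations from the median difference of each paired plate set. Scores above 2.5 were candidate hits; scores below -2 mark compounds lowering MK1775-induced damage.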

Test system: Reh
Experiment: Z' of S-phase gammaH2AX difference (drug + MK1775 minus drug alone) (Z-score); higher = stronger synergistic S-phase DNA damage with MK1775
Conditions: MK1775 concentration 400 nM; first compound 10 µM; 4 h

Structure (SMILES) | Z' of S-phase gammaH2AX difference (Z-score)
CC(C)Oc1cccnc1N(C)C1CCN(Cc2ccccc2)CC1 + C=CCn1c(=O)c2cnc(Nc3ccc(N4CCN(C)CC4)cc3)nc2n1-c1cccc(C(C)(C)O)n1 [MK1775] | inactive: -1.88
C[C@@H]1O[C@H](C[N+](C)(C)C)CS1 [OXA-22 iodide] + C=CCn1c(=O)c2cnc(Nc3ccc(N4CCN(C)CC4)cc3)nc2n1-c1cccc(C(C)(C)O)n1 [MK1775] | inactive: -0.287
NCC1(CC(=O)O)CCCCC1 [Gabapentin] + C=CCn1c(=O)c2cnc(Nc3ccc(N4CCN(C)CC4)cc3)nc2n1-c1cccc(C(C)(C)O)n1 [MK1775] | inactive: 0.255
CN1C2CCC1CC(OC(c1ccccc1)c1ccc(Cl)cc1)C2 (stereo not drawn) [4'-Chloro-3-alpha-(diphenylmethoxy)tropane hydrochloride] + C=CCn1c(=O)c2cnc(Nc3ccc(N4CCN(C)CC4)cc3)nc2n1-c1cccc(C(C)(C)O)n1 [MK1775] | inactive: 0.929
CCCn1c(=O)c2[nH]c(C3CCCC3)nc2n(CCCOC(=O)c2ccc(S(=O)(=O)F)cc2)c1=O + C=CCn1c(=O)c2cnc(Nc3ccc(N4CCN(C)CC4)cc3)nc2n1-c1cccc(C(C)(C)O)n1 [MK1775] | inactive: 2.31
CC(O)(CS(=O)(=O)c1ccc(F)cc1)C(=O)Nc1ccc(C#N)c(C(F)(F)F)c1 (centres undefined) [Bicalutamide (Casodex)] + C=CCn1c(=O)c2cnc(Nc3ccc(N4CCN(C)CC4)cc3)nc2n1-c1cccc(C(C)(C)O)n1 [MK1775] | inactive: 0.409
CCCCCCC(C)(C)c1ccc([C@@H]2C[C@H](O)CC[C@H]2CCCO)c(O)c1 + C=CCn1c(=O)c2cnc(Nc3ccc(N4CCN(C)CC4)cc3)nc2n1-c1cccc(C(C)(C)O)n1 [MK1775] | inactive: 0.324
CCCN1CCC[C@@H]2Cc3n[nH]cc3C[C@H]21 [(-)-Quinpirole hydrochloride] + C=CCn1c(=O)c2cnc(Nc3ccc(N4CCN(C)CC4)cc3)nc2n1-c1cccc(C(C)(C)O)n1 [MK1775] | inactive: -0.432
Cc1nc(-c2ccc(-c3ccc(C(=O)N4CCc5cc6c(cc54)C4(CCN(C)CC4)CO6)cc3)c(C)c2)no1 + C=CCn1c(=O)c2cnc(Nc3ccc(N4CCN(C)CC4)cc3)nc2n1-c1cccc(C(C)(C)O)n1 [MK1775] | inactive: -0.908
CC(C)c1cccc(C(C)C)c1O [Propofol] + C=CCn1c(=O)c2cnc(Nc3ccc(N4CCN(C)CC4)cc3)nc2n1-c1cccc(C(C)(C)O)n1 [MK1775] | inactive: 1.02
O=C(O)CC[N+](=O)[O-] [3-Nitropropionic acid] + C=CCn1c(=O)c2cnc(Nc3ccc(N4CCN(C)CC4)cc3)nc2n1-c1cccc(C(C)(C)O)n1 [MK1775] | inactive: 0.514
Oc1ccc2c3c1O[C@H]1[C@@H](O)CC[C@@]4(O)[C@@H](C2)N(CC2CCC2)CC[C@]314 [Nalbuphine hydrochloride] + C=CCn1c(=O)c2cnc(Nc3ccc(N4CCN(C)CC4)cc3)nc2n1-c1cccc(C(C)(C)O)n1 [MK1775] | inactive: 0.393
OCc1cnc[nH]1 [4-Imidazolemethanol hydrochloride] + C=CCn1c(=O)c2cnc(Nc3ccc(N4CCN(C)CC4)cc3)nc2n1-c1cccc(C(C)(C)O)n1 [MK1775] | inactive: -0.245
CN1C[C@H](CNC(=O)OCc2ccccc2)C[C@@H]2c3cccc4c3c(cn4C)C[C@H]21 [Metergoline] + C=CCn1c(=O)c2cnc(Nc3ccc(N4CCN(C)CC4)cc3)nc2n1-c1cccc(C(C)(C)O)n1 [MK1775] | inactive: 1.14
N#CC(C#N)=Cc1cc(O)c(O)c(O)c1 [Tyrphostin 25] + C=CCn1c(=O)c2cnc(Nc3ccc(N4CCN(C)CC4)cc3)nc2n1-c1cccc(C(C)(C)O)n1 [MK1775] | inactive: 0.822
CC(C)[C@@]1(NC(=O)[C@@H]2C=C3c4cccc5[nH]cc(c45)C[C@H]3N(C)C2)O[C@@]2(O)[C@@H]3CCCN3C(=O)[C@H](Cc3ccccc3)N2C1=O [Ergocristine] + C=CCn1c(=O)c2cnc(Nc3ccc(N4CCN(C)CC4)cc3)nc2n1-c1cccc(C(C)(C)O)n1 [MK1775] | inactive: -0.386
COc1ccc2c(c1)[C@@]13CCCC[C@H]1[C@@H](C2)NCC3 [3-Methoxy-morphanin hydrochloride] + C=CCn1c(=O)c2cnc(Nc3ccc(N4CCN(C)CC4)cc3)nc2n1-c1cccc(C(C)(C)O)n1 [MK1775] | inactive: -0.0243

Structure (SMILES) | Z' of S-phase gammaH2AX difference (Z-score)
COc1cc2c(c(OC)c1OC)-c1ccc(OC)c(=O)cc1[C@@H](NC(C)=O)CC2 [Colchicine] + C=CCn1c(=O)c2cnc(Nc3ccc(N4CCN(C)CC4)cc3)nc2n1-c1cccc(C(C)(C)O)n1 [MK1775] | inactive: -0.0367
CC(C)C1CNC(C(=O)O)C1CC(=O)O (centres undefined) [Dihydrokainic acid] + C=CCn1c(=O)c2cnc(Nc3ccc(N4CCN(C)CC4)cc3)nc2n1-c1cccc(C(C)(C)O)n1 [MK1775] | inactive: -0.211
CC[C@@H](CO)NC(=O)[C@@H]1C=C2c3cccc4c3c(cn4C)C[C@H]2N(C)C1 [Methysergide maleate] + C=CCn1c(=O)c2cnc(Nc3ccc(N4CCN(C)CC4)cc3)nc2n1-c1cccc(C(C)(C)O)n1 [MK1775] | inactive: -0.155
CC(N)C(O)c1ccc(O)c(O)c1 (single isomer, unassigned; (-)) [(-)-alpha-Methylnorepinephrine] + C=CCn1c(=O)c2cnc(Nc3ccc(N4CCN(C)CC4)cc3)nc2n1-c1cccc(C(C)(C)O)n1 [MK1775] | inactive: 0.789
C/C=C(/C)C(=O)O[C@H]1C(C)=C2[C@H]([C@@H]1OC(=O)CCCCCCC)[C@@](C)(OC(C)=O)C[C@H](OC(=O)CCC)[C@@]1(O)[C@H]2OC(=O)[C@@]1(C)O [Thapsigargin] + C=CCn1c(=O)c2cnc(Nc3ccc(N4CCN(C)CC4)cc3)nc2n1-c1cccc(C(C)(C)O)n1 [MK1775] | inactive: -2.59
C[C@]12CC[C@@H](O)C[C@@H]1CC[C@@H]1[C@@H]2CC[C@]2(C)[C@@H](C(=O)CO)CC[C@@H]12 [3-alpha,21-Dihydroxy-5-alpha-pregnan-20-one] + C=CCn1c(=O)c2cnc(Nc3ccc(N4CCN(C)CC4)cc3)nc2n1-c1cccc(C(C)(C)O)n1 [MK1775] | inactive: 0.364
c1ccc2c(c1)OCC(C1=NCCN1)O2 (centres undefined) [Idazoxan hydrochloride] + C=CCn1c(=O)c2cnc(Nc3ccc(N4CCN(C)CC4)cc3)nc2n1-c1cccc(C(C)(C)O)n1 [MK1775] | inactive: 2.07
CCCN(CCC)[C@H]1CCc2c(F)ccc(O)c2C1 [S(-)-UH-301 hydrochloride] + C=CCn1c(=O)c2cnc(Nc3ccc(N4CCN(C)CC4)cc3)nc2n1-c1cccc(C(C)(C)O)n1 [MK1775] | inactive: 0.0615
CCCN1CCO[C@@H]2c3cc(O)ccc3OC[C@H]21 [S(+)-PD 128,907 hydrochloride] + C=CCn1c(=O)c2cnc(Nc3ccc(N4CCN(C)CC4)cc3)nc2n1-c1cccc(C(C)(C)O)n1 [MK1775] | inactive: -0.582
COC(=O)c1cc2c(cn1)[nH]c1ccccc12 [Methyl beta-carboline-3-carboxylate] + C=CCn1c(=O)c2cnc(Nc3ccc(N4CCN(C)CC4)cc3)nc2n1-c1cccc(C(C)(C)O)n1 [MK1775] | inactive: -0.274
C[C@@H]1O[C@@H](O[C@H]2C[C@@H](O)[C@]3(CO)[C@H]4[C@H](O)C[C@]5(C)[C@@H]([C@@H]6COC(=O)C6)CC[C@]5(O)[C@@H]4CC[C@]3(O)C2)[C@H](O)[C@H](O)[C@H]1O [Dihydroouabain] + C=CCn1c(=O)c2cnc(Nc3ccc(N4CCN(C)CC4)cc3)nc2n1-c1cccc(C(C)(C)O)n1 [MK1775] | inactive: -0.571
CCCn1c(C)c(C(=O)c2cccc3ccccc23)c2ccccc21 + C=CCn1c(=O)c2cnc(Nc3ccc(N4CCN(C)CC4)cc3)nc2n1-c1cccc(C(C)(C)O)n1 [MK1775] | inactive: -0.114
O=P1(N(CCCl)CCCl)NCCCO1 (centres undefined) [Cyclophosphamide monohydrate] + C=CCn1c(=O)c2cnc(Nc3ccc(N4CCN(C)CC4)cc3)nc2n1-c1cccc(C(C)(C)O)n1 [MK1775] | inactive: 0.124
CC(=O)OCC1=C(C(=O)[O-])N2C(=O)[C@@H](NC(=O)CCC[C@@H](N)C(=O)[O-])[C@H]2SC1.[Zn+2] [Cephalosporin C zinc salt] + C=CCn1c(=O)c2cnc(Nc3ccc(N4CCN(C)CC4)cc3)nc2n1-c1cccc(C(C)(C)O)n1 [MK1775] | inactive: -0.494
CN1C(=O)CCS(=O)(=O)C1c1ccc(Cl)cc1 (centres undefined) [Chlormezanone] + C=CCn1c(=O)c2cnc(Nc3ccc(N4CCN(C)CC4)cc3)nc2n1-c1cccc(C(C)(C)O)n1 [MK1775] | inactive: 0.398
O=C(O)[C@@H]1CCN1 [L-azetidine-2-carboxylic acid] + C=CCn1c(=O)c2cnc(Nc3ccc(N4CCN(C)CC4)cc3)nc2n1-c1cccc(C(C)(C)O)n1 [MK1775] | inactive: 0.147
O=C(O)Cc1cnc[nH]1 [Imidazole-4-acetic acid hydrochloride] + C=CCn1c(=O)c2cnc(Nc3ccc(N4CCN(C)CC4)cc3)nc2n1-c1cccc(C(C)(C)O)n1 [MK1775] | inactive: -0.216

Single entries from the list:
Value for C[C@@H]1O[C@@H](O[C@H]2C[C@@H](O)[C@]3(CO)[C@H]4[C@H](O)C[C@]5(C)[C@@H]([C@@H]6COC(=O)C6)CC[C@]5(O)[C@@H]4CC[C@]3(O)C2)[C@H](O)[C@H](O)[C@H]1O [Dihydroouabain] + C=CCn1c(=O)c2cnc(Nc3ccc(N4CCN(C)CC4)cc3)nc2n1-c1cccc(C(C)(C)O)n1 [MK1775] under Z' of S-phase gammaH2AX difference (Z-score): inactive: -0.571
Value for CC[C@@H](CO)NC(=O)[C@@H]1C=C2c3cccc4c3c(cn4C)C[C@H]2N(C)C1 [Methysergide maleate] + C=CCn1c(=O)c2cnc(Nc3ccc(N4CCN(C)CC4)cc3)nc2n1-c1cccc(C(C)(C)O)n1 [MK1775] under Z' of S-phase gammaH2AX difference (Z-score): inactive: -0.155
Value for CCCN(CCC)[C@H]1CCc2c(F)ccc(O)c2C1 [S(-)-UH-301 hydrochloride] + C=CCn1c(=O)c2cnc(Nc3ccc(N4CCN(C)CC4)cc3)nc2n1-c1cccc(C(C)(C)O)n1 [MK1775] under Z' of S-phase gammaH2AX difference (Z-score): inactive: 0.0615
